This is one part of the list. The data scatter; read single values as rough.

The chains behind the UniProt entries cited, without tags or fusion partners. Where a name states a change or a piece, a line headed by the entry shows the natural chain unless it says otherwise. Residues count along the entry.
UniProt Q9Y613: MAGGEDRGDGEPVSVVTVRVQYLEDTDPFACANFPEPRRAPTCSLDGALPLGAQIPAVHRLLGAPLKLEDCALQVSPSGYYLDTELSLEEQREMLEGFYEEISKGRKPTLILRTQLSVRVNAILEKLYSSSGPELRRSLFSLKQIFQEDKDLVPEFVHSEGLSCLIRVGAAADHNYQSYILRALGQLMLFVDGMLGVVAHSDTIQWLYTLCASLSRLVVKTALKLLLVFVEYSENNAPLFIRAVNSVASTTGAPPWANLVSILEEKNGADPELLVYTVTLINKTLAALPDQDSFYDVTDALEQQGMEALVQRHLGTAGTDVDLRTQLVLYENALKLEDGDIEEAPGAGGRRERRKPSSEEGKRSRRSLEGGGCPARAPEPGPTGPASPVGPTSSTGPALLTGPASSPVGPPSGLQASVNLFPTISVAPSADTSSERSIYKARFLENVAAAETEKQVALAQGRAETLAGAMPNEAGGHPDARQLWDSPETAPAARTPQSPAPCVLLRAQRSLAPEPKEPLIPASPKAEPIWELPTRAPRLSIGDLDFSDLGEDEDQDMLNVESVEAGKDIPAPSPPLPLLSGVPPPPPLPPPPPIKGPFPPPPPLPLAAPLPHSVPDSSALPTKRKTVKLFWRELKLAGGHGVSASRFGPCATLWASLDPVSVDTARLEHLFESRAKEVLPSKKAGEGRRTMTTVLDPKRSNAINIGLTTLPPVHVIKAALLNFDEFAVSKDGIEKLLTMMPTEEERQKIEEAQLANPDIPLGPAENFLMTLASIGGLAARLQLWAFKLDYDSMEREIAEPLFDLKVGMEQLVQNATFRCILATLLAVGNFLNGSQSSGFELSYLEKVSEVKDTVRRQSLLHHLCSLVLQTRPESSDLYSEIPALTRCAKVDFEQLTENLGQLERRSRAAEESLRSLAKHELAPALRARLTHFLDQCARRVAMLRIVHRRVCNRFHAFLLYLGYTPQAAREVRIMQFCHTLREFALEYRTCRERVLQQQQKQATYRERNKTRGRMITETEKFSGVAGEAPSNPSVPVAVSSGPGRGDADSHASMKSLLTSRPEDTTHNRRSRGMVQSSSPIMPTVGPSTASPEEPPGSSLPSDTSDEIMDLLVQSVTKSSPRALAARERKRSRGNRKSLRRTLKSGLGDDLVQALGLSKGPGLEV
UniProt Q9BQS8, 732-751: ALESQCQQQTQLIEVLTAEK
UniProt Q6PIW4, 151-170: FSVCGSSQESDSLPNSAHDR
UniProt P0C2W1: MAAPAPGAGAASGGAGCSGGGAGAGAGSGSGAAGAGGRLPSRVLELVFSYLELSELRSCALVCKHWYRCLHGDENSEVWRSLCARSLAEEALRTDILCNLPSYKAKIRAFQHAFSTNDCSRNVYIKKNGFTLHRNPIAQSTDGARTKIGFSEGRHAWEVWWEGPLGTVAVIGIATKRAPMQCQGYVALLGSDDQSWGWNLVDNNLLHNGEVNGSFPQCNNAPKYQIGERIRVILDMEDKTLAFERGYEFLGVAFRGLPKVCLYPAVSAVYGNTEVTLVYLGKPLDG
UniProt P22830: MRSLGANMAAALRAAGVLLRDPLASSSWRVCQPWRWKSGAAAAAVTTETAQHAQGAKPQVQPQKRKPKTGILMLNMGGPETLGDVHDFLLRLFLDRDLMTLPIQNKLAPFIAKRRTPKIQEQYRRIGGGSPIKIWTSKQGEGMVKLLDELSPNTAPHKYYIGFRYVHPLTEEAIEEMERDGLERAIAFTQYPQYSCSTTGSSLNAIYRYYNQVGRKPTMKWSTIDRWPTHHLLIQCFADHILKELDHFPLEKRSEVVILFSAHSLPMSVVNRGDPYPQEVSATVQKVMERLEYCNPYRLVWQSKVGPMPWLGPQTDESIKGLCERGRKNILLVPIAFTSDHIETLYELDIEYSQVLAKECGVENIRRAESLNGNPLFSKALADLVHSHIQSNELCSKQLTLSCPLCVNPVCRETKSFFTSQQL
UniProt Q70Z53: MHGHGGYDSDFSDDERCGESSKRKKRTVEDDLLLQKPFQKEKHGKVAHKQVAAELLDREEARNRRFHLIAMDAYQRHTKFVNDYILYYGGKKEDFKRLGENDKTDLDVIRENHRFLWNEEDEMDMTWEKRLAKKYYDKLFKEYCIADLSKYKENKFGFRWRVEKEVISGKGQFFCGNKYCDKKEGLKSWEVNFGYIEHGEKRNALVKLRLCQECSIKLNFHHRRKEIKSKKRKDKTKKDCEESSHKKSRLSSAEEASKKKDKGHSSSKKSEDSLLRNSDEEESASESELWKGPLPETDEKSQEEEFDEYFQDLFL
UniProt P22087, 266-285: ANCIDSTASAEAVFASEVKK
UniProt Q5VW36: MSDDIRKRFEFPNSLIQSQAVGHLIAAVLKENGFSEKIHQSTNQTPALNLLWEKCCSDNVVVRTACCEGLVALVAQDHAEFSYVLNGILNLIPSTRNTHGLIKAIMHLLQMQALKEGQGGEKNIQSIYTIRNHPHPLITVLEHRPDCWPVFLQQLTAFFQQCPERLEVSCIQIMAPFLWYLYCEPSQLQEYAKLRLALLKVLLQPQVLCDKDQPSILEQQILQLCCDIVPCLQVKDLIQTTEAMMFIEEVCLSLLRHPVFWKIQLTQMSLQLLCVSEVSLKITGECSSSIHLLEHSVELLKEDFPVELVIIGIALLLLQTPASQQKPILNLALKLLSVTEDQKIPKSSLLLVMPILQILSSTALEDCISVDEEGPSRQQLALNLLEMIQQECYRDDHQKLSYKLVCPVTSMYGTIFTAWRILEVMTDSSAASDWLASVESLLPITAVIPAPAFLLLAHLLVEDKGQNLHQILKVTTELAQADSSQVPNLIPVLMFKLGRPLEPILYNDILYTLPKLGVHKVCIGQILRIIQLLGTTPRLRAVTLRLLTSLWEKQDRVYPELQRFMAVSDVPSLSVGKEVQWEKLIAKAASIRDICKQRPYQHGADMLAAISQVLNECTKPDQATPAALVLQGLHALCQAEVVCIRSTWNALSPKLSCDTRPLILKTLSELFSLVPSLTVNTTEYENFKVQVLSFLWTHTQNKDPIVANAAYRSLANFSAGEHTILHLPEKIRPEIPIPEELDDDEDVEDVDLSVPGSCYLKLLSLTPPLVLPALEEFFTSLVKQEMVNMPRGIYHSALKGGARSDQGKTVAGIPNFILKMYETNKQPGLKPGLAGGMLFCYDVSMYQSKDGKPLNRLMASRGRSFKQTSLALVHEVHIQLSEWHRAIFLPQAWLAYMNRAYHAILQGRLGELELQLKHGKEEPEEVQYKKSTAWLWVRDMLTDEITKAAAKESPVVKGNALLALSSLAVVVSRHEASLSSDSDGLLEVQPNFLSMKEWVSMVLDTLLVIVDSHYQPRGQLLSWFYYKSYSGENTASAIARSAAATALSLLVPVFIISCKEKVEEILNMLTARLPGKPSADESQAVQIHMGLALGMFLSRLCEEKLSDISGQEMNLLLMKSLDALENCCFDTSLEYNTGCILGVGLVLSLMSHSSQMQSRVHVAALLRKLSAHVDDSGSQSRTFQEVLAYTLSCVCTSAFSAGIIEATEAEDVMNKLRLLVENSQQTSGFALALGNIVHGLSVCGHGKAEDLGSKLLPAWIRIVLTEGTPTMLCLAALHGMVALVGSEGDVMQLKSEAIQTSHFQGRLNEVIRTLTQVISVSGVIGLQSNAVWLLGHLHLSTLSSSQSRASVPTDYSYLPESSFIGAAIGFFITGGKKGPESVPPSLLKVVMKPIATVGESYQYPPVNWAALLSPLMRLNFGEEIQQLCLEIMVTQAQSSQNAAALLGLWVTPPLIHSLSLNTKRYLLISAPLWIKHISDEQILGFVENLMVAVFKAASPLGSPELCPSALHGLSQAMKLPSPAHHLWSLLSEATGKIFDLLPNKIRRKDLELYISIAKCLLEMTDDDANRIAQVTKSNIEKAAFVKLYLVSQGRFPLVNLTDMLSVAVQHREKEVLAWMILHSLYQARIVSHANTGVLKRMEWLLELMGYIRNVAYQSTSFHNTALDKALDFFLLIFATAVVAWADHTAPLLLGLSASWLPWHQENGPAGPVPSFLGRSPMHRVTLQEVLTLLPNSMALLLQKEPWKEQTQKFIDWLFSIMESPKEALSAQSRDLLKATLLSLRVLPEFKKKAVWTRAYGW
UniProt Q14254: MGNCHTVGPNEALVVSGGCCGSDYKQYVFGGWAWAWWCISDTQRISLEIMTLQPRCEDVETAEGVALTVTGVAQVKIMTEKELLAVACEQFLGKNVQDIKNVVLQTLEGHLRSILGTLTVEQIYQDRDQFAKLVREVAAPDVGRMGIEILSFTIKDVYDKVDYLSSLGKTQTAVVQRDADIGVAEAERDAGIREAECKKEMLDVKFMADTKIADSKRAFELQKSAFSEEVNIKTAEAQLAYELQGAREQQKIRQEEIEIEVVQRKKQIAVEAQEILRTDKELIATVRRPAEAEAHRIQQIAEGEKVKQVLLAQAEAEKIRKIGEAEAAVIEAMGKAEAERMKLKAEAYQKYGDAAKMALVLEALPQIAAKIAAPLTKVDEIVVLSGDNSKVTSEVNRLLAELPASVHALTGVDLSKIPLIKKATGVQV
UniProt Q9UET6: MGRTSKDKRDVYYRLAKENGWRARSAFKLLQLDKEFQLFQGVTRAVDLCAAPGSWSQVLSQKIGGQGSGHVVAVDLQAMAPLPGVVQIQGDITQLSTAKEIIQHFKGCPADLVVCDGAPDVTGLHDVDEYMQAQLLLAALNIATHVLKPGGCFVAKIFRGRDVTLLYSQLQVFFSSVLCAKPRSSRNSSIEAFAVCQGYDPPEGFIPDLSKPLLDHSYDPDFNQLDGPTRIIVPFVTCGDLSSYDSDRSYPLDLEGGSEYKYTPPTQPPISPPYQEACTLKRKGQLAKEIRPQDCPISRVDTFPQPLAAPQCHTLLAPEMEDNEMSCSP
UniProt O94868: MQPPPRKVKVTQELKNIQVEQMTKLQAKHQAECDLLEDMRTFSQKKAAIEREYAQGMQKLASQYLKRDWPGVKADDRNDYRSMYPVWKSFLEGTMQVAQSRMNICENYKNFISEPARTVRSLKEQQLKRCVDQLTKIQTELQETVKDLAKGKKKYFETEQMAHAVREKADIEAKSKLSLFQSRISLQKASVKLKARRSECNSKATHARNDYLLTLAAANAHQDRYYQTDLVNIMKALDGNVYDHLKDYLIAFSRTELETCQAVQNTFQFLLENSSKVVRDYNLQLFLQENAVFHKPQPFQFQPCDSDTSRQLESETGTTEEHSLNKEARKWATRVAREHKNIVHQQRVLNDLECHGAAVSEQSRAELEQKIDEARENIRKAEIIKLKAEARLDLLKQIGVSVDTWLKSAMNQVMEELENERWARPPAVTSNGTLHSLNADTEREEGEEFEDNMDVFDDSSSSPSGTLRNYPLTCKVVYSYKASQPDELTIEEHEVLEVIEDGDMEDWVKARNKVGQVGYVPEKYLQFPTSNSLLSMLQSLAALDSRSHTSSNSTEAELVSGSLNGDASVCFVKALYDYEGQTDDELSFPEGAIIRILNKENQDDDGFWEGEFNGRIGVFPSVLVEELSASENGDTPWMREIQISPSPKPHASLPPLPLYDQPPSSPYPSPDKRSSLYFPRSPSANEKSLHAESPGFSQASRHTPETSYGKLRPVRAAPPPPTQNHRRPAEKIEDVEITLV
UniProt Q9Y2H6, 771-793: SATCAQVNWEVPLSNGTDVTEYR
UniProt Q9NYY8: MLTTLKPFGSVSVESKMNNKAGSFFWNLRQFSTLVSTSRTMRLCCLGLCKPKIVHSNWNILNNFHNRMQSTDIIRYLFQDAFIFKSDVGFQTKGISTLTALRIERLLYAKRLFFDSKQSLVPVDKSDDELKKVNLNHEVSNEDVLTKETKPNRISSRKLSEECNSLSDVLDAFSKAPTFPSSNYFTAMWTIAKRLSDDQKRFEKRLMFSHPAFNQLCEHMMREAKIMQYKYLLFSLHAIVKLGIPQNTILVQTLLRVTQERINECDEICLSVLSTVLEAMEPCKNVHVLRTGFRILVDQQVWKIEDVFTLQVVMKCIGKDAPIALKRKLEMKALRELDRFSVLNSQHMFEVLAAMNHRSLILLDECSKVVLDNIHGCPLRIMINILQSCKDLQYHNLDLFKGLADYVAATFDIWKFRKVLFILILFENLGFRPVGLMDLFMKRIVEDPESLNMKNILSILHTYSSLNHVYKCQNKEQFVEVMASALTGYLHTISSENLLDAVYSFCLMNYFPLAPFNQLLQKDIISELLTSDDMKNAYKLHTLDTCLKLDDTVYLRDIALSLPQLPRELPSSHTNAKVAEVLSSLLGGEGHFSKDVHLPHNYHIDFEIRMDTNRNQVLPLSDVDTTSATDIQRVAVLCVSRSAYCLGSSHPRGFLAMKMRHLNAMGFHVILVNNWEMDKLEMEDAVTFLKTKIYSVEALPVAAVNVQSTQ

Compound in one assay: ClCC(=O)N[C@H]1CCCc2ccccc12
Description: log2 mean competition ratio of IA-DTB cysteine labelling (DMSO/compound) (log2 ratio); higher = stronger cysteine engagement by compound. The following applies: 50 µM; treatment time: 4 h; cell line lysate: HEK293T. How it is done: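 IA-DTB competitive cysteine chemoproteomics in HEK293T RIPA lysate. Lysates were treated with compound 29 or 30 at 50 or 200 µM for 4 h, then IA-DTB (500 µM, 1 h), trypsin-digested, NeutrAvidin-enriched and analysed by diaPASEF. Competition ratio = intensity DMSO / intensity compound (n=4 treated, n=64 DMSO); binding: mean log2 CR ≥ 1 and p ≤ 0.05 plus QC filters. Target is the cysteine site.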
Regarding G6PD C13, the “log2 mean competition ratio” value came to 0.2.
For FLII C46 (UniProt Q13045), the “log2 mean competition ratio” value came to 0.243.
In the case of FHOD1 C936 (UniProt Q9Y613), the “log2 mean competition ratio” value is -0.579.
As to FYCO1 C928 (UniProt Q9BQS8), the “log2 mean competition ratio” value is -0.243.
On the same count and under the same terms, to FIGNL1 C154 (UniProt Q6PIW4) belongs 0.332; to FBXO45 C69 (UniProt P0C2W1), -0.36.
Same read-out and setting: to FECH C294 (UniProt P22830) belongs -0.429.
Regarding FRA10AC1 C175 (UniProt Q70Z53), the “log2 mean competition ratio” value was determined as 0.265.
On the same count and under the same terms, the value for FBL C268 (UniProt P22087) was -0.414; that for FASN C2202 was -0.28.
For FOCAD C657 (UniProt Q5VW36), the “log2 mean competition ratio” value is -0.425.
Still for that read-out and setting: to FLOT2 C88 (UniProt Q14254) belongs -0.216.
Still for that read-out and setting: to FLAD1 C236 (UniProt Q8NFF5) belongs 0.0942; to FTSJ1 C295 (UniProt Q9UET6), -0.0305.
For FCHSD2 C33 (UniProt O94868), the “log2 mean competition ratio” value came to 0.00827.
Still for that read-out and setting: the value for FNDC3A C774 (UniProt Q9Y2H6) was 0.545; that for FOXM1 C160 was 0.0537; that for FASTKD2 C546 (UniProt Q9NYY8) was 0.178.
Same read-out and setting: to FYCO1 C737 (UniProt Q9BQS8) belongs -0.212.
On the same count and under the same terms, to FSCN1 C61 (UniProt Q16658) belongs 0.167.

The same assay, now with this note: 200 µM; treatment time: 4 h; cell line lysate: HEK293T.
Take G6PD C13: the “log2 mean competition ratio” value was -0.132.
In the case of FLII C46 (UniProt Q13045), the “log2 mean competition ratio” value was -0.00168.
For the target FHOD1 C936 (UniProt Q9Y613), the “log2 mean competition ratio” value is -0.244.
The same measure, in the same setting: to FYCO1 C928 (UniProt Q9BQS8) belongs -0.0109; to FIGNL1 C154 (UniProt Q6PIW4), 0.0414; to FBXO45 C69 (UniProt P0C2W1), 0.62.
As for FECH C294 (UniProt P22830), the “log2 mean competition ratio” value was -0.285.
On to FRA10AC1 C175 (UniProt Q70Z53), for which the “log2 mean competition ratio” value was -0.155.
As for FBL C268 (UniProt P22087), the “log2 mean competition ratio” value was -0.00541.
On the same count and under the same terms, the value for FASN C2202 was -0.306; that for FOCAD C657 (UniProt Q5VW36) was -0.149.
Still for that read-out and setting: to FLOT2 C88 (UniProt Q14254) belongs -0.288; to FLAD1 C236 (UniProt Q8NFF5), 0.034; to FTSJ1 C295 (UniProt Q9UET6), 0.0945.
In the case of FCHSD2 C33 (UniProt O94868), the “log2 mean competition ratio” value was found to be 0.345.
On the same count and under the same terms, to FNDC3A C774 (UniProt Q9Y2H6) belongs -0.198.
As to FOXM1 C160, the “log2 mean competition ratio” value stood at 0.0442.
On the same count and under the same terms, to FASTKD2 C546 (UniProt Q9NYY8) belongs 0.011; to FYCO1 C737 (UniProt Q9BQS8), 0.064.
Still for that read-out and setting: the value for FSCN1 C61 (UniProt Q16658) was 0.33.

Source of the values: the supplement of paper PMC11732987, “Enantioselective OTUD7B fragment discovery through chemoproteomics screening and high-throughput optimisation” (Communications Chemistry, 2025).
